From the supplement of paper PMC5836539 come the findings set out here.

Protein sequences, listed by entry. Tags and fused reporters are not part of them. Lines headed by an entry give the natural chain unless they say otherwise; changes in a name come on top.
UniProt Q6A1A2: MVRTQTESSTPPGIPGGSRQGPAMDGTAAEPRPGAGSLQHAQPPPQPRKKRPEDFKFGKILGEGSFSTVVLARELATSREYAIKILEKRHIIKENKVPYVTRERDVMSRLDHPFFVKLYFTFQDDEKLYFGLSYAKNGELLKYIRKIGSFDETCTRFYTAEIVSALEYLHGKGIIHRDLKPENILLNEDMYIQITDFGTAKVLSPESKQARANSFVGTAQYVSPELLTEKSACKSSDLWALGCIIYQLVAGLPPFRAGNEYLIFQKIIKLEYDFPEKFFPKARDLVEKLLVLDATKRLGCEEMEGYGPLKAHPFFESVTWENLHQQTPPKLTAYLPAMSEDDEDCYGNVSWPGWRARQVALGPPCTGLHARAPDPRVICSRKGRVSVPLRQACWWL
UniProt Q08J23, whole entry, looked up: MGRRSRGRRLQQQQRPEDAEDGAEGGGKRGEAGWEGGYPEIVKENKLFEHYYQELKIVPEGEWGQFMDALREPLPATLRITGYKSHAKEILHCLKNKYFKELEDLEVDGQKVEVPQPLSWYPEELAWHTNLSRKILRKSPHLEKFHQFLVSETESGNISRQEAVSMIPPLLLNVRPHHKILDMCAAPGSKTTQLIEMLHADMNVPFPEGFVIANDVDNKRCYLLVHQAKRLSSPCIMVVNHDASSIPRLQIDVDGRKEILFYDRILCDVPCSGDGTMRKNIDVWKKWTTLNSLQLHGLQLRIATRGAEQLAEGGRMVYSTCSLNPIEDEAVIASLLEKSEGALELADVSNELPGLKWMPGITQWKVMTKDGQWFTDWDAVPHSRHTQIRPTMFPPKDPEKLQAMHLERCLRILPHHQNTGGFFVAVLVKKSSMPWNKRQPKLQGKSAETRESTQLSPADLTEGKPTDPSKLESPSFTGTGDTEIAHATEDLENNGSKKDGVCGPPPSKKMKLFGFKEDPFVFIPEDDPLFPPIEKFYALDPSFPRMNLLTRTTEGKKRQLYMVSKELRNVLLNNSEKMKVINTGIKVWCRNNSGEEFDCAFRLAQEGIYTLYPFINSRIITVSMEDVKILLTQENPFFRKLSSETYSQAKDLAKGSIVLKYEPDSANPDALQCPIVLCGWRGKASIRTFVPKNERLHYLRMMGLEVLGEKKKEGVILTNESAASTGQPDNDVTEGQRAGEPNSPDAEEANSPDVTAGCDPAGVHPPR
UniProt P18887, whole entry: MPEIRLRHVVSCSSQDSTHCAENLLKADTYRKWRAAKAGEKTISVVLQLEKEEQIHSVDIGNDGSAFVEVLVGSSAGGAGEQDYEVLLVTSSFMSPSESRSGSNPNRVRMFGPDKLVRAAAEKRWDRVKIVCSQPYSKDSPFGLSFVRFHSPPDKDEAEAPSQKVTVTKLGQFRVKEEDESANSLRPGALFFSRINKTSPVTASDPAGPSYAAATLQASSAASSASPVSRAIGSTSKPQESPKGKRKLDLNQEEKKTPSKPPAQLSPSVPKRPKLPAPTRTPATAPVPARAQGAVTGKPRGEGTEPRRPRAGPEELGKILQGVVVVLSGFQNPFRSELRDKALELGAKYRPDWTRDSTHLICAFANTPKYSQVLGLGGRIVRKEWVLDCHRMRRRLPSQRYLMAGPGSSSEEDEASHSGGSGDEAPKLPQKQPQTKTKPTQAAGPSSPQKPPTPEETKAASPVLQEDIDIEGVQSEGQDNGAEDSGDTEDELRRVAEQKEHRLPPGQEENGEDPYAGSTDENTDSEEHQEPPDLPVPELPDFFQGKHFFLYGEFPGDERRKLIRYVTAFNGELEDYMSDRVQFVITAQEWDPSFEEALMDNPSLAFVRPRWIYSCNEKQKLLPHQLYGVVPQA
UniProt P00558: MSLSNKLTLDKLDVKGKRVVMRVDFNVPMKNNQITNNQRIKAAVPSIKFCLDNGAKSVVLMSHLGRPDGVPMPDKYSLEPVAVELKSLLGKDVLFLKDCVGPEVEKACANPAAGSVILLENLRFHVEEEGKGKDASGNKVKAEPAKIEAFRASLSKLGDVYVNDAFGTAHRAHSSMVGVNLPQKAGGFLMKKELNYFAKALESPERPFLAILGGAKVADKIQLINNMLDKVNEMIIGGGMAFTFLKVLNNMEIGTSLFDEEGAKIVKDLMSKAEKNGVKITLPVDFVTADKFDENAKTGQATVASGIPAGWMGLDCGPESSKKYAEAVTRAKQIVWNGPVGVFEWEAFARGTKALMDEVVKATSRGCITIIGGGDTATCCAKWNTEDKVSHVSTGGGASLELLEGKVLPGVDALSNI
UniProt P51812, whole entry, looked up: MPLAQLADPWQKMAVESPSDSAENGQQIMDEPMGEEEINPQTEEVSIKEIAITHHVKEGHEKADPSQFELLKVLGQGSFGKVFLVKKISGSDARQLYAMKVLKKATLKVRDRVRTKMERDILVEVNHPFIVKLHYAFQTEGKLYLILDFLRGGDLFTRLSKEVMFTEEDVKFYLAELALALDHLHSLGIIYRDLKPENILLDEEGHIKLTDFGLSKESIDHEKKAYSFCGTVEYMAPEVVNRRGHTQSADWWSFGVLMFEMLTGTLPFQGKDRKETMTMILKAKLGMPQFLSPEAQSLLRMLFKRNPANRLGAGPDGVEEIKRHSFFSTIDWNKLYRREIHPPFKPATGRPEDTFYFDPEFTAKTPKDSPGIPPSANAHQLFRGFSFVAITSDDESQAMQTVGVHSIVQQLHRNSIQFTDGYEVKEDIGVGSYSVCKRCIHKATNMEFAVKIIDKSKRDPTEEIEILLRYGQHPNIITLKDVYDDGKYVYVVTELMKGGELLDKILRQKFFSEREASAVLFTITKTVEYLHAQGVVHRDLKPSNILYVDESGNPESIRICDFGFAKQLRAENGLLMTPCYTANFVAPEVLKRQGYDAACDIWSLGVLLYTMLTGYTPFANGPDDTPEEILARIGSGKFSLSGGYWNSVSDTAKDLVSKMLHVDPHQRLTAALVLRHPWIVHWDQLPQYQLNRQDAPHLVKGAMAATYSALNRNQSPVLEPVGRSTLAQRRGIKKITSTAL
UniProt Q01082, whole entry, looked up: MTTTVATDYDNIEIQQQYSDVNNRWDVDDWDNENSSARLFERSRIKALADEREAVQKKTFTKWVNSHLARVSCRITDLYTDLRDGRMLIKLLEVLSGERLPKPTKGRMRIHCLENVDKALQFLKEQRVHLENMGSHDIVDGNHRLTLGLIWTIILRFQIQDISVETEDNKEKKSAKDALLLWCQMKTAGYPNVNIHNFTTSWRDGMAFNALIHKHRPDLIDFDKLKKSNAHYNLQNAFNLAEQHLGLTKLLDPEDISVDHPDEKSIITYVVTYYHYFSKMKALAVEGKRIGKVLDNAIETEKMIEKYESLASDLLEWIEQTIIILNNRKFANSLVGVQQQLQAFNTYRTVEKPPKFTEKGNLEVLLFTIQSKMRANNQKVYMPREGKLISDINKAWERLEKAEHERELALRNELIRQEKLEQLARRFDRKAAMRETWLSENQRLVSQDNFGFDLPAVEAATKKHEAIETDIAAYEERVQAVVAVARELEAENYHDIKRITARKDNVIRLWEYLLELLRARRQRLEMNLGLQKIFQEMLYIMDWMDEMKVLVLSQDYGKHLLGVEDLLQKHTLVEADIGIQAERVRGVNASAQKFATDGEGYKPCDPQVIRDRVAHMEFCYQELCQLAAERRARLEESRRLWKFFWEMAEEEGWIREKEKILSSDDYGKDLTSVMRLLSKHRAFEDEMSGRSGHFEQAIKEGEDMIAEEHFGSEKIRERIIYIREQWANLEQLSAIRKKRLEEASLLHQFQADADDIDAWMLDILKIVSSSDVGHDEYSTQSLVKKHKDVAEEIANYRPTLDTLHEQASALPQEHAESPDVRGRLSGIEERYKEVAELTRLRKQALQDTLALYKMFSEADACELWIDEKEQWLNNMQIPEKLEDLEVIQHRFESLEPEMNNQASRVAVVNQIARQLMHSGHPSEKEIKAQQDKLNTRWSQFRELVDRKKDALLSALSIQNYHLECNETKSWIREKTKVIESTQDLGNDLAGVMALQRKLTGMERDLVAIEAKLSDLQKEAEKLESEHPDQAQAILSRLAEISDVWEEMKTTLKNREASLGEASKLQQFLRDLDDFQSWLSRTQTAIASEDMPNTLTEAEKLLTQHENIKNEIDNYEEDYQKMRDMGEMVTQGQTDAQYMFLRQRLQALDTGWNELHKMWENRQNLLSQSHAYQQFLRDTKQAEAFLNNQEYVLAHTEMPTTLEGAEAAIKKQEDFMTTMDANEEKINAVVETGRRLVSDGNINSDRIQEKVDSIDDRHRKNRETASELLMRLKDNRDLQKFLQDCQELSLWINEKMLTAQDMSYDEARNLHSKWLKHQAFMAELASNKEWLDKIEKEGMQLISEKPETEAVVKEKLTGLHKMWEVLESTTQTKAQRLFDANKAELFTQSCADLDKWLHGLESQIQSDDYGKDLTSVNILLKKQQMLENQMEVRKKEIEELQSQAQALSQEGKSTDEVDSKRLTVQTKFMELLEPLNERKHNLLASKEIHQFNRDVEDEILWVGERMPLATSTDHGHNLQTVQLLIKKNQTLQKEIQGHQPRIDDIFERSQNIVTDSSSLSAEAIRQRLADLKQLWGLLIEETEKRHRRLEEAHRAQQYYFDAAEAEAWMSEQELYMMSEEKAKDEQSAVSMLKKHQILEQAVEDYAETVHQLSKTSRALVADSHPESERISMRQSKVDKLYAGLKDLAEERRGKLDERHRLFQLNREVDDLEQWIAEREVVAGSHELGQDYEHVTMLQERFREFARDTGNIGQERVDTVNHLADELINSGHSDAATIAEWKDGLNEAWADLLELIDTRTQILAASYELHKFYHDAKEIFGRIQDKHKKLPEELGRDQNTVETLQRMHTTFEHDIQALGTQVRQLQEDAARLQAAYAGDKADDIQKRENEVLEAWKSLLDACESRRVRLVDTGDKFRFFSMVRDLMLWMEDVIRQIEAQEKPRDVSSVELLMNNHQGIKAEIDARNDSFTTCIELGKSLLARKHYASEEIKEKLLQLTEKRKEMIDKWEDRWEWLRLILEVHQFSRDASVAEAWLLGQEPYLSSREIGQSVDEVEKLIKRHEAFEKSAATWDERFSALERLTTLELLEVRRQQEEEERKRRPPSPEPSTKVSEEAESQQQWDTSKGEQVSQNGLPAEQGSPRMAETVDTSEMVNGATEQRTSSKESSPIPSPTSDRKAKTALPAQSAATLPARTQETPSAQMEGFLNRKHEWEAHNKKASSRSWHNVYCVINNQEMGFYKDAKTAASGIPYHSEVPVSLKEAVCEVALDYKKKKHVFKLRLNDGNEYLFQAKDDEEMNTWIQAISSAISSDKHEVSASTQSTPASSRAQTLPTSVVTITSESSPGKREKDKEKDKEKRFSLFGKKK
UniProt Q96CW6: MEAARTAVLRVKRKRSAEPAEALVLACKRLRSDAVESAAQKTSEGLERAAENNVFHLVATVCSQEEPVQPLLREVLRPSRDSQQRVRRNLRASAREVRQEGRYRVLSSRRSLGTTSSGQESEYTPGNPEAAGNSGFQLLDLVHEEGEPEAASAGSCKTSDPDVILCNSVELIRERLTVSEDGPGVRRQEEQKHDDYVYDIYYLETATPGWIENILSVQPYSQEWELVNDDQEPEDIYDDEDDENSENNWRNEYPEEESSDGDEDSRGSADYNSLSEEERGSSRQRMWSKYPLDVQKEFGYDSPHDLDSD
UniProt Q5VSL9: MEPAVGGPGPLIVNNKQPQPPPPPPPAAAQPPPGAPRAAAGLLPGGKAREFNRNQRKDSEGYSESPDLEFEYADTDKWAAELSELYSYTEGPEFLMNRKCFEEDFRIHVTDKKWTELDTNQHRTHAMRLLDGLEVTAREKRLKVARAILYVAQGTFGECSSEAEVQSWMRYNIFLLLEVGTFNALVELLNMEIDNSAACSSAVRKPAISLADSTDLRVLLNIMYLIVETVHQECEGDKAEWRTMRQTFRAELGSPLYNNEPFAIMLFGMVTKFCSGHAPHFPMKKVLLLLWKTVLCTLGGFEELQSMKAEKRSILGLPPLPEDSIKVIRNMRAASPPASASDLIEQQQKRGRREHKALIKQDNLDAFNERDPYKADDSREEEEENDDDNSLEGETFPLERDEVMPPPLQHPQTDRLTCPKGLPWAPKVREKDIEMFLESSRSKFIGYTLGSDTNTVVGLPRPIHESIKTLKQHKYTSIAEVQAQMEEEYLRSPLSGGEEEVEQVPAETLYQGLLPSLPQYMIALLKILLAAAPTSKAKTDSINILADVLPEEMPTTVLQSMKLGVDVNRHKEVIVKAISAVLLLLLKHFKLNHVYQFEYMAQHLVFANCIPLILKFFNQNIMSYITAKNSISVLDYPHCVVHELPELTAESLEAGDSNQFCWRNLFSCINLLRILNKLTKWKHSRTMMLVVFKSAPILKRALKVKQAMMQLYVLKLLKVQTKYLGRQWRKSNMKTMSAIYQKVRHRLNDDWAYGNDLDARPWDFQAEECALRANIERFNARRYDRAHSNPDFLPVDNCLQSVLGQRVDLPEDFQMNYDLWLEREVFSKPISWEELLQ

± gives the standard deviation of the averaged measurements. This data set is noisy: repeats of one test often differ as much as different tests do.

Compound in assay [1]: T1, CC[C@@H](C)Nc1cc(C(=O)N[C@H]2C[C@H]3CC[C@@H](C2)N3c2ccc(C(=O)C3CC3)cn2)c(C)cc1C(N)=O [XL888]
As to the kind of experiment: phosphopeptide melting temperature shift (XL888 minus DMSO); higher = stabilised by drug treatment. The settings on record: 100 µM; treatment time 2 h; layout: intact cells; SK-Mel 24. As to the method:
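Phospho-TPP in intact SK-Mel 24 cells treated with 100 uM XL888 or DMSO for 2 h, heated at 10 temperatures (37-67 C) for 3 min, soluble fraction TMT10plex-labelled and TiO2 phospho-enriched. Melting curves were fitted per phosphopeptide; the value is the melting point difference (drug minus vehicle) in each of two biological replicates.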

Compound in assay [2]: T1, XL888
The assay is described as above. The settings on record: 100 µM; treatment time 2 h; layout: intact cells; SK-Mel 28. As to the method: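 Phospho-TPP in intact SK-Mel 28 cells treated with 100 uM XL888 or DMSO for 2 h, heated at 10 temperatures (37-67 C) for 3 min, soluble fraction TMT10plex-labelled and TiO2 phospho-enriched. Melting curves were fitted per phosphopeptide; the value is the melting point difference (drug minus vehicle) in each of two biological replicates.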

Consider “SRRM2 phosphosite_2409 (phosphosite position: 2409) (UniProt Q9UQ35)”, for which the “phosphopeptide melting temperature shift” value in assay [1] was 1.33 ± 0.22 °C; in assay [2] it was -1.44 °C.
As for “UniProt P29590-4_phosphosite_527 (phosphosite position: 527)”, the “phosphopeptide melting temperature shift” value in assay [1] was determined as 2.36 °C; in assay [2] it was 1.99 ± 1.7 °C.
In the case of “SSB phosphosite_366 (phosphosite position: 366) (UniProt P05455)”, the “phosphopeptide melting temperature shift” value in assay [1] was -1.23 ± 0.14 °C; in assay [2], -0.78 ± 0.17 °C.
Take “SQSTM1 phosphosite_269 (phosphosite position: 269) (UniProt Q13501)”: the “phosphopeptide melting temperature shift” value in assay [1] worked out at 0.253 ± 0.55 °C; in assay [2], 0.814 ± 1.3 °C.
The matching figures for “UniProt Q9UKE5-6_phosphosite_678 (phosphosite position: 678)”: -0.474 °C and -0.418 ± 0.31 °C.
“PFKFB2 phosphosite_483 (phosphosite position: 483) (UniProt O60825)”: the results for the “phosphopeptide melting temperature shift” value in assay [1] and in assay [2] were 0.0408 ± 0.56 °C and -0.218 ± 0.34 °C, respectively.
As to “UniProt Q9UQN3-2_phosphosite_158 (phosphosite position: 158)”, the “phosphopeptide melting temperature shift” value in assay [1] was 1 ± 0.8 °C; in assay [2], 4.14 °C.
For “UniProt Q02078-3_phosphosite_98 (phosphosite position: 98)”, the “phosphopeptide melting temperature shift” value in assay [1] is 0.28 °C; in assay [2], 1.19 ± 0.67 °C.
As for “UniProt Q92466-3_phosphosite_26 (phosphosite position: 26)”, the results for the “phosphopeptide melting temperature shift” value in assay [1] and in assay [2] were -0.156 ± 0.36 °C and -1.38 °C, respectively.
With “RRBP1 phosphosite_533 (phosphosite position: 533) (UniProt Q9P2E9)”, the “phosphopeptide melting temperature shift” value in assay [1] is 0.55 °C; in assay [2], -0.0725 ± 0.14 °C.
Regarding “MYH9 phosphosite_1943 (phosphosite position: 1943) (UniProt P35579)”, the entries for the “phosphopeptide melting temperature shift” value in assay [1] and in assay [2] were 0.379 °C and 0.918 ± 0.35 °C, respectively.
In the case of “UniProt O94979-3_phosphosite_527 (phosphosite position: 527)”, the “phosphopeptide melting temperature shift” value in assay [1] amounted to 0.458 °C; in assay [2] it was 0.0243 ± 0.51 °C.
Take “THRAP3 phosphosite_939 (phosphosite position: 939) (UniProt Q9Y2W1)”: the “phosphopeptide melting temperature shift” value in assay [1] turned out to be 1.66 °C; in assay [2], 0.797 °C.
Regarding “UniProt Q13428-6_phosphosite_1312 (phosphosite position: 1312)”, the “phosphopeptide melting temperature shift” value in assay [1] was -1.32 ± 0.1 °C; in assay [2] it was -1.1 °C.
Take “UniProt Q5SSJ5-2_phosphosite_13 (phosphosite position: 13)”: the “phosphopeptide melting temperature shift” value in assay [1] came out at 1.47 °C; in assay [2], 2.09 °C.
Turning to “UniProt Q6A1A2_phosphosite_214 (phosphosite position: 214)”, the “phosphopeptide melting temperature shift” value was -0.897 ± 0.061 °C in assay [1] and 0.0232 ± 0.14 °C in assay [2].
Consider “UniProt Q15084-3_phosphosite_425 (phosphosite position: 425)”, for which the “phosphopeptide melting temperature shift” value in assay [1] was -1.14 °C; in assay [2] it was 0.342 ± 0.29 °C.
As to “RRBP1 phosphosite_583 (phosphosite position: 583) (UniProt Q9P2E9)”, the “phosphopeptide melting temperature shift” value in assay [1] was 0.781 °C; in assay [2] it was 0.768 ± 0.51 °C.
“HSP90AA2P phosphosite_263 (phosphosite position: 263) (UniProt Q14568)”: the “phosphopeptide melting temperature shift” value is 7.08 °C in assay [1] and 6.14 °C in assay [2].
On to “UniProt Q92538-3_phosphosite_1337 (phosphosite position: 1337)”, for which the “phosphopeptide melting temperature shift” value in assay [1] turned out to be 1.47 °C; in assay [2] it was 0.0248 °C.
For the target “UniProt P48634_phosphosite_1219 (phosphosite position: 1219)”, the “phosphopeptide melting temperature shift” value in assay [1] is 0.861 ± 1.3 °C; in assay [2] it was 0.671 °C.
In the case of “SNRNP70 phosphosite_226 (phosphosite position: 226) (UniProt P08621)”, the results for the “phosphopeptide melting temperature shift” value in assay [1] and in assay [2] were -2.16 °C and -2.18 °C, respectively.
Regarding “UniProt Q7Z5K2_phosphosite_77 (phosphosite position: 77)”, the figures for the “phosphopeptide melting temperature shift” value in assay [1] and in assay [2] were 1.24 °C and 0.785 ± 0.29 °C, respectively.
Taken in the same sequence, the figures for “NSUN2 phosphosite_751 (phosphosite position: 751) (UniProt Q08J23)” were 3.37 °C and 1.32 ± 0.77 °C.
Taken in the same sequence, the figures for “UniProt Q9NXR1-2_phosphosite_306 (phosphosite position: 306)” were 0.463 °C and -0.299 °C.
As for “UniProt Q14814-6_phosphosite_391 (phosphosite position: 391)”, the “phosphopeptide melting temperature shift” value came to 1.22 °C in assay [1] and 0.872 °C in assay [2].
In the case of “XRCC1 phosphosite_447 (phosphosite position: 447) (UniProt P18887)”, the results for the “phosphopeptide melting temperature shift” value in assay [1] and in assay [2] were 0.16 °C and 0.298 ± 0.27 °C, respectively.
In the case of “UniProt Q9NZT2-2_phosphosite_378 (phosphosite position: 378)”, the “phosphopeptide melting temperature shift” value in assay [1] stood at 0.563 ± 0.86 °C; in assay [2] it was 1.81 ± 2.7 °C.
Taken in the same sequence, the figures for “UniProt O95747_phosphosite_339 (phosphosite position: 339)” were -0.672 ± 0.64 °C and -0.624 ± 0.25 °C.
Turning to “GIGYF2 phosphosite_26 (phosphosite position: 26) (UniProt Q6Y7W6)”, the “phosphopeptide melting temperature shift” value in assay [1] came out at 0.625 ± 0.41 °C; in assay [2], 0.692 °C.
Turning to “UniProt Q6P6C2-3_phosphosite_53 (phosphosite position: 53)”, the “phosphopeptide melting temperature shift” value is -2.3 °C in assay [1] and -1.59 ± 0.43 °C in assay [2].
Take “PGK1 phosphosite_203 (phosphosite position: 203) (UniProt P00558)”: the “phosphopeptide melting temperature shift” value in assay [1] is -0.0654 °C; in assay [2] it was 7.15e-05 ± 0.12 °C.
The matching figures for “THRAP3 phosphosite_682 (phosphosite position: 682) (UniProt Q9Y2W1)”: 1.66 ± 1.5 °C and 0.272 ± 0.22 °C.
Consider “UniProt Q86W92-2_phosphosite_788 (phosphosite position: 788)”, for which the “phosphopeptide melting temperature shift” value in assay [1] stood at 3.88 °C; in assay [2] it was 1.49 ± 0.48 °C.
As to “NCL phosphosite_67 (phosphosite position: 67) (UniProt P19338)”, the “phosphopeptide melting temperature shift” value in assay [1] is -0.493 ± 0.18 °C; in assay [2], 2.82 °C.
Regarding “UniProt P51812_phosphosite_227 (phosphosite position: 227)”, the “phosphopeptide melting temperature shift” value in assay [1] is -0.405 °C; in assay [2], -0.337 ± 0.53 °C.
With “SQSTM1 phosphosite_272 (phosphosite position: 272) (UniProt Q13501)”, the results for the “phosphopeptide melting temperature shift” value in assay [1] and in assay [2] were -0.724 °C and -0.705 ± 0.75 °C, respectively.
In the case of “UniProt P33316-2_phosphosite_11 (phosphosite position: 11)”, the “phosphopeptide melting temperature shift” value is -0.287 °C in assay [1] and 1.45 ± 0.58 °C in assay [2].
“CARHSP1 phosphosite_52 (phosphosite position: 52) (UniProt Q9Y2V2)”: the “phosphopeptide melting temperature shift” value was -1.07 °C in assay [1] and -0.166 ± 0.038 °C in assay [2].
As to “UniProt Q8IWS0-5_phosphosite_121 (phosphosite position: 121)”, the figures for the “phosphopeptide melting temperature shift” value in assay [1] and in assay [2] were 3.81 °C and -5.1 °C, respectively.
Taken in the same sequence, the figures for “SPTBN1 phosphosite_2102 (phosphosite position: 2102) (UniProt Q01082)” were 0.754 ± 0.11 °C and 1.54 ± 0.53 °C.
For the target “SLC7A6OS phosphosite_308 (phosphosite position: 308) (UniProt Q96CW6)”, the “phosphopeptide melting temperature shift” value in assay [1] stood at 1.54 °C; in assay [2] it was 0.62 ± 1.5 °C.
Regarding “RBM33 phosphosite_205 (phosphosite position: 205) (UniProt Q96EV2)”, the “phosphopeptide melting temperature shift” value in assay [1] was 0.506 °C; in assay [2], -0.62 °C.
For the target “UniProt Q5VSL9_phosphosite_59 (phosphosite position: 59)”, the “phosphopeptide melting temperature shift” value in assay [1] turned out to be 0.226 ± 0.46 °C; in assay [2], 0.531 ± 0.56 °C.
The matching figures for “UniProt P52594-2_phosphosite_181 (phosphosite position: 181)”: 1.9 °C and 1.97 °C.
As to “UniProt Q14498-2_phosphosite_136 (phosphosite position: 136)”, the entries for the “phosphopeptide melting temperature shift” value in assay [1] and in assay [2] were 0.456 ± 0.61 °C and 1.32 ± 0.34 °C, respectively.
With “EIF2S2 phosphosite_105 (phosphosite position: 105) (UniProt P20042)”, the figures for the “phosphopeptide melting temperature shift” value in assay [1] and in assay [2] were 2.09 °C and 0.336 ± 0.19 °C, respectively.
